Assay results reported in PMC8927971.

Assays:
Assay in all cases: EMSA
[1] = molecular target: T1, CIZ1 C275 (Mus musculus) (UniProt F6ZP34); settings: 10 mM Tris-HCl pH 7.5, 30 mM NaCl, 2.5 mM MgCl2, 0.2 mM DTT, 0.1% IGEPAL CA-630, 0.1 mg/ml yeast tRNA, 0.4 U RNaseOUT, 1% glycerol, 30 C 20 min, recombinant protein, residues 571-845, label: digoxigenin-11-UTP (1:15 with UTP), probe letters rebuilt from the primers and the genome
T1 sequence (looked up): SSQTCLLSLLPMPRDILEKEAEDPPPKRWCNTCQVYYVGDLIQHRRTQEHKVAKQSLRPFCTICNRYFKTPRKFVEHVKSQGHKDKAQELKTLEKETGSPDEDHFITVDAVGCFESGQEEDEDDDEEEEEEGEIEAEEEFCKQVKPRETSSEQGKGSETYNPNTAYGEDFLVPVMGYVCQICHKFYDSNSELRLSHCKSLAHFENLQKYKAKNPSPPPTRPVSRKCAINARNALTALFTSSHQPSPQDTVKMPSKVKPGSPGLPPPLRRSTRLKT

[2] = molecular target: T2, CIZ1 N571 (GST-N571) (Mus musculus) (UniProt F6ZP34); settings: 0.3 nM RNA, 10 mM Tris-HCl pH 7.5, 30 mM NaCl, 2.5 mM MgCl2, 0.2 mM DTT, 0.1% IGEPAL CA-630, 0.1 mg/ml yeast tRNA, 0.4 U RNaseOUT, 1% glycerol, 30 C 20 min, recombinant protein, residues 1-571, protein details: GST (N-term), label: digoxigenin-11-UTP (1:15 with UTP), probe letters rebuilt from the primers and the genome
T2 sequence (looked up): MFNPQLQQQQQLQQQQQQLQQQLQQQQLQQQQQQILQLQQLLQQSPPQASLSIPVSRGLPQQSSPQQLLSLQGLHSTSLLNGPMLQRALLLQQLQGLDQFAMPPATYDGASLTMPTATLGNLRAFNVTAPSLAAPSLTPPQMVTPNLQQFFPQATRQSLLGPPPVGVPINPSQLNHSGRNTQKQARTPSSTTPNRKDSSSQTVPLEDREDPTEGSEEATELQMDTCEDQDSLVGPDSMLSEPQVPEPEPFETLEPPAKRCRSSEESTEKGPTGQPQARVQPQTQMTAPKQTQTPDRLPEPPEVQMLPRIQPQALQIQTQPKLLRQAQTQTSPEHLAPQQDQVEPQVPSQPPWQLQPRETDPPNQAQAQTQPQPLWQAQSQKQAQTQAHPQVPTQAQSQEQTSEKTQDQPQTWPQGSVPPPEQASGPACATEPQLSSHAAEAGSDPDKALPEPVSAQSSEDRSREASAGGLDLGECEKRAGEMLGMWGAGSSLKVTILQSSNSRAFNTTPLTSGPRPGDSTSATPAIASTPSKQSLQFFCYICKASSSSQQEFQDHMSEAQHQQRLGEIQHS

[3] = molecular target: T3, CIZ1 C181 (Mus musculus) (UniProt F6ZP34); settings: results similar to C275; 10 mM Tris-HCl pH 7.5, 30 mM NaCl, 2.5 mM MgCl2, 0.2 mM DTT, 0.1% IGEPAL CA-630, 0.1 mg/ml yeast tRNA, 0.4 U RNaseOUT, 1% glycerol; 30 C 20 min; recombinant protein; residues 665-845; label: digoxigenin-11-UTP (1:15 with UTP); probe letters rebuilt from the primers and the genome
T3 sequence (looked up): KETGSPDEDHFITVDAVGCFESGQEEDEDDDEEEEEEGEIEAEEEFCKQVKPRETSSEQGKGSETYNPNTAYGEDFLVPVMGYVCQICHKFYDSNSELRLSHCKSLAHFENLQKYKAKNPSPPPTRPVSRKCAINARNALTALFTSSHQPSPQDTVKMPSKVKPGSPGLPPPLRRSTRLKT

[4] = up to 5 uM protein, 0.3 nM RNA, first evident at 600 nM

| Sequence | binding result ([1]; 6.5 nM RNA, 10 mM EDTA added (enhances binding)) | binding result [1, 4] | half-maximal binding [2] | binding result [2] | binding result ([2]; preferred over antisense) | binding result [3] |
| --- | --- | --- | --- | --- | --- | --- |
| GGGAGAUUUCUUCCUUGCAGUUGUGUCUAAUUCUUUGUUACAUCUAUUUCUUCCUUGCUUUUGUGUGUCUAUUUCUUCCUUGCAUUGUGUCUAAUUCUUUGGUAUAUAUAUUUCUUCAUUGCUUUGUGUGUCUAUGUCUCCUUGUGUUGUCUAAUUCGUUGUUGCAUCUAUUUCUUCCUUGCUUUGUGUGUCUAUUUCUUCCUUGCUUUGUGUGUCUAUGUCUUCCUUGCUUUGUGUGUCUAUGUCUUCCUUGUUUUGUGUAUCUACUUCUUCCUUGUGUGUCUAAUUCUUUGUUACAUCUAUUUCUUCCUUCCUUUGCAUGUCUCCUUCUUUCCUUUGUGUGUCUUUUCUGUCUGCAGUGUGUCUUACCUAUUCCCAUGUUUCUCCUGCAUGUUCUUUCUUGCAGAGCUUUGAGCUUUGUUUCACUUUCUCUGGUGCCUGUGUGGUCUGCUUUGUCUUCACUAGCUAUGGCUCUCUGU [Xist repeat E proximal] | binds | binds more weakly | 100 nM | – | – | – |
| GGGAGCACAUAACACACAUGCACACACGCACAUGUACAUACAAAGAAACAUCCAAGAAAGGAUUACUUUAGAAUACAAGAGAGACACAGACUUGUAAAGAGAUGAAAUGCUCAAAGUGAACAGAAAGGAGGAAAGUAGAAGAUAGAAACACAAGCAAACACAAAGCAACAGAAUGAUGCUGAGAUAAGAAAUCCACCAAUAGCAAAGAGACACAAAUACAAAAGAAAACAGAGAAAGUGGCCCAAGAAAGGCAGGGAAGAAAUGUAAACAAGAAUUCACUAAGGAUAGAAGCAGCAGAAAGAAAACUGAAAUGGACUGACAAAGAGAACUUGAACAAAGAACAAGUGGGGUGAGCACAAGAAAAAGAGAGGGAUGCAUGCAACAUGUGACCCAAAGGGGAGUCACGAAAGGCAGGAGUGAAAGAAAAGCUAAGAGAAAUAGCAACCAGAUAGAUAAAACAGAGAGCCAUAGCUAGUG [Xist repeat E distal antisense] | – | – | – | binds more weakly | – | – |
| GGGAGCACUAGCUAUGGCUCUCUGUUUUAUCUAUCUGGUUGCUAUUUCUCUUAGCUUUUCUUUCACUCCUGCCUUUCGUGACUCCCCUUUGGGUCACAUGUUGCAUGCAUCCCUCUCUUUUUCUUGUGCUCACCCCACUUGUUCUUUGUUCAAGUUCUCUUUGUCAGUCCAUUUCAGUUUUCUUUCUGCUGCUUCUAUCCUUAGUGAAUUCUUGUUUACAUUUCUUCCCUGCCUUUCUUGGGCCACUUUCUCUGUUUUCUUUUGUAUUUGUGUCUCUUUGCUAUUGGUGGAUUUCUUAUCUCAGCAUCAUUCUGUUGCUUUGUGUUUGCUUGUGUUUCUAUCUUCUACUUUCCUCCUUUCUGUUCACUUUGAGCAUUUCAUCUCUUUACAAGUCUGUGUCUCUCUUGUAUUCUAAAGUAAUCCUUUCUUGGAUGUUUCUUUGUAUGUACAUGUGCGUGUGUGCAUGUGUGUUAUGUG [Xist repeat E distal sense] | – | – | – | – | binds | binds more weakly |
| GGGAGCUUGCUCCAGCCAUGUUUGCUCGUUUCCCGUGGAUGUGCGGUUCUUCCGUGGUUUCUCUCCAUCUAAGGAGCUUUGGGGGAACAUUUUUAGUUCCCCUACCACCAAGCCUUAUGGCUUAUUUAAGAAAACAUAUCAAAAUUCCACGAGAUUUUUGACGUUUUGAUAUGUUCUGGUAAGAUUUUUUUUUUGACAUGUCCUCCAUACUUUUUGAUAUUUGUAAUAUUUUCAGUCAAUUUUUCAUUUUUAAGGAAUAUUUCUUUGUUGUGCCUUUUGGUUGAUACUUGUGUGUGUAUGGUGGACUUACCUUUCUUUCAUUGUUUAUAUAUUCUUGCCCAUCGGGGCCACGGAUACCUGUGUGUCCUCCCCGCCAUUCCAUGCCCAACGGGGUUUUGGAUACUUACCUGCCUUUUCAUUCUUUUUUUUUCUUAUUAUUUUUUUUUCUAAACUUGCCCAUCUGGGCUGUGGAUACCUGCUUUUAUUCUUUUUUUCUUCUCCUUAG [Xist repeat A] | – | binds more weakly | 200 nM | – | – | binds more weakly |

A weaker result is weaker than the reference pair of the same experiment. Where a protein sequence is shown, tags need not be part of it. For part of these data: For at least one entry, the source does not settle the construct or the ends of the probe.
